# Screening data

From PubChem BioAssay record AID912 (NCATS, 2007).

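A cell-based FRET test of anthrax lethal toxin entry, tracked through the 460 nm emission signal; the cell line is not named here. Each compound was tested as a concentration series from about 0.0005 to 40 µM. The number is the fitted AC50 of the 460 nm signal alone; lower values mean a more potent effect. A falling signal goes with compounds filed as inhibitors or cytotoxic, a rising one with activators or fluorescent compounds (inferred from the filed classes).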

Values are in µM. Common to all entries: measured here: 460 nm channel. Part of the compounds only, not a random draw; the main read-out is not listed here. Potencies fitted to partial, single-point or poorly fitting curves are rough. The first word of each remark tells which way the curve ran; it can be opposite to the aim of the assay.

compound	AC50 (µM)	curve as filed
CN1[C@@H]2CC[C@H]1CC(O[C@@H](c1ccccc1)c1ccc(Cl)cc1)C2 (some centres not stated)	1.995	falling, full curve
C=CCn1c(=O)c2ccccc2n2c(SCc3nc(N)nc(Nc4ccccc4C)n3)nnc12	25.12	rising, single point
COC(=O)[C@@]1(Cc2ccc(OC)cc2)[C@H]2c3cc(C(=O)N4CCCC4)n(CCSCCO)c3C[C@H]2CN1C(=O)c1ccccc1	10	rising, partial curve
COCCn1c(=O)c(-c2ccc(F)cc2)nc2cnc(Nc3cccc(OC)c3)nc21	12.59	rising, partial curve
CC/C(=C(\c1ccccc1)c1ccc(OCCN(C)C)cc1)c1ccc(O)cc1	25.12	falling, partial curve
COc1cc2[nH]c3c(N4CCN(c5ccccn5)CC4)ncnc3c2cc1OC	0.0631	falling, full curve
O=C(c1ccc(F)cc1)c1ccc(N2CCCC2)cc1	15.85	rising, single point
CCOC(=O)C(C(=O)OCC)c1cc(Br)c2noc3c2c1C(=O)c1ccccc1-3	3.981	falling, partial curve
C=CCn1c(NCCc2ccccc2)nc2c1c(=O)n(C)c(=O)n2C	0.01995	rising, partial curve
C[N+]1(C)CCO[C@](O)(c2ccccc2)C1	0.7943	falling, single point
CCN1C(=O)/C(=C/N(C)C)c2ccccc21	5.012	falling, single point
CCOC(=O)c1cn(CC)c2ccc(Br)cc2c1=O	0.2512	falling, full curve, poor fit
Cc1c(Cl)cc(C(C)(C)C)c(O)c1Cc1c(C)c(Cl)cc(C(C)(C)C)c1O	3.981	falling, partial curve
O=C(/C=C\c1ccc(O)c(O)c1)OCCc1ccccc1	15.85	falling, partial curve
COc1ccc(-n2c(=O)c(-c3cccs3)nc3cnc(N(C)C)nc32)cc1	12.59	rising, partial curve
O=C(Nc1cccc(C(=O)Nc2ccc(S(=O)(=O)O)c3cc(S(=O)(=O)O)cc(S(=O)(=O)O)c23)c1)Nc1cccc(C(=O)Nc2ccc(S(=O)(=O)O)c3cc(S(=O)(=O)O)cc(S(=O)(=O)O)c23)c1	31.62	rising, single point
C/C(=C\c1ccccc1)CN1CCN(c2ccccc2)CC1	5.012	falling, single point
CCOC(=O)C(CC)Sc1nc2c(c(=O)[nH]c(=O)n2C)n1CCc1ccccc1 (configuration not stated)	6.31	rising, partial curve
CCN(CC)S(=O)(=O)N1CCC(C(=O)NCC2COc3ccccc3O2)CC1 (configuration not stated)	7.943	rising, partial curve
CCOC(=O)N1CCC(Nc2nc3ccccc3n3nnnc23)CC1	6.31	rising, partial curve, poor fit
N#CCCSc1ccccc1NC(=O)c1ccc(S(=O)(=O)N2CCCC2)cc1	12.59	falling, single point
NC(=O)c1nsc(C(=O)N(CC(=O)NCc2ccc3c(c2)OCO3)C2CCCCC2)c1N	15.85	rising, single point
COc1ccc(NS(=O)(=O)c2ccc3oc(Nc4ccc5c(c4)OCCO5)nc3c2)cc1	31.62	falling, single point
CC(C)CC(NS(=O)(=O)c1ccc2c(c1)oc(=O)n2C)C(=O)N1CC=C(c2ccccc2)CC1 (configuration not stated)	31.62	falling, single point
CC(=C/C=C/C(C)=C/C=C/C=C(C)/C=C/C=C(C)/C=C/C(=O)O)/C=C/C(=O)O	2.512	falling, full curve
CCCn1c(C)c(C(=O)c2ccc3ccccc3c2)c2ccccc21	15.85	falling, full curve
Cc1cc2c(cc(C(=O)OCC(=O)NCc3cccs3)n2C(C)C)o1	10	falling, partial curve
COc1ccccc1-n1c(SCC(=O)NC(C)(C)C)nc(O)cc1=O	10	rising, partial curve
Cc1nc(C)c(C(=O)C2=C(O)C(=O)N(CCCN(C)C)C2c2ccco2)s1 (configuration not stated)	0.2512	falling, full curve, poor fit
COC(=O)C1=CN(C)C=C(C(=O)OC)C1c1ccsc1	12.59	rising, partial curve
COc1ccc(N2CCN(C3CC(=O)N(c4ccc5c(c4)OCCO5)C3=O)CC2)cc1 (configuration not stated)	0.07943	falling, full curve, poor fit
COc1ccc(C2C3=C(CC(C)(C)CC3=O)Oc3ncn(CCO)c(=N)c32)cc1OC (configuration not stated)	1.585	rising, full curve
NC(=NC1C2CC3CC(C2)CC1C3)Nc1ccc(I)cc1 (configuration not stated)	10	falling, full curve, poor fit
Cc1cc(Nc2ccccc2)nc(-c2ccccc2O)n1	15.85	falling, partial curve
COc1ccc(S(=O)(=O)Nc2ccc(F)c(Cl)c2)cc1OC	31.62	falling, single point
C/C(CCC(=O)OC[C@@H]1O[C@H](C#Cc2ccccc2)C=C[C@@H]1Oc1ccc(C)cc1)=N/OC[C@@H](O)[C@H]1O[C@H]2OC(C)(C)O[C@H]2[C@@H]1O	1.995	falling, single point
O=C(Nc1nc(-c2nc3ccccc3s2)cs1)c1ccc(S(=O)(=O)N2CCOCC2)cc1	2.512	falling, full curve
Cc1cccc(OCC2=NS(=O)(=O)c3ccccc3N2)c1	12.59	rising, single point
O=C(NCCc1c[nH]c2ccccc12)[C@H]1C[C@@H]1[C@H](NP(=O)(c1ccccc1)c1ccccc1)c1ccccc1	19.95	rising, single point
COc1cc(-c2ccc(N=Nc3ccc4c(S(=O)(=O)O)cc(S(=O)(=O)O)c(N)c4c3O)c(OC)c2)ccc1N=Nc1ccc2c(S(=O)(=O)O)cc(S(=O)(=O)O)c(N)c2c1O	31.62	falling, partial curve
CC1(c2ccc(Cl)cc2)NC(=O)N(CC(=O)N2CCCC2)C1=O (configuration not stated)	0.0631	rising, full curve
CC1CCCCC1NC(=O)C1CCN(S(=O)(=O)N2CCCCCC2)CC1 (configuration not stated)	0.01	falling, full curve, poor fit
COc1ccc(-c2nc3cnc(N4CCN(C)CC4)nc3n(-c3ccc(OC)cc3)c2=O)cc1	12.59	rising, partial curve
Cc1cc(C)n(S(=O)(=O)c2cccc(Cl)c2Cl)n1	0.01585	falling, full curve, poor fit
CCOc1cc(C(=O)NC)cc(OCC)c1OCC	0.07943	falling, single point
COC(=O)c1ccc(CSc2nc3c(cnn3-c3ccc(F)cc3)c(=O)[nH]2)o1	31.62	rising, single point
O=C(Nc1ccc(CN2CCOCC2)cc1)c1ccc(-c2ccc(Br)cc2)o1	12.59	falling, partial curve
CCOC(=O)Cc1csc(SCc2nc3ccccc3c(=O)[nH]2)n1	25.12	rising, partial curve
Nc1c(S(N)(=O)=O)cc(S(N)(=O)=O)cc1S(N)(=O)=O	5.012	rising, single point
CC(C)CCN1CC(C(=O)NCc2ccc(F)cc2)CC1=O (configuration not stated)	5.012	rising, single point
CC[C@H](CO)NC(=O)[C@@H]1C=C2c3cccc4[nH]cc(c34)C[C@@H]2N(C)C1	12.59	falling, single point
COc1ncc2nc(-c3cc(F)cc(F)c3)c(=O)n(-c3ccccc3)c2n1	31.62	rising, single point
CSCC[C@H](NC(=O)OC(C)(C)C)C(=O)N1CCC(C(=O)N[C@@H](C)C(=O)O)CC1	31.62	falling, single point
O=P1(NC2CCCC2)COc2ccccc2OC1	1.585	rising, partial curve
Cc1ccccc1N1CCN(Cc2c(C#N)c3ccccc3n2C)CC1	2.512	falling, full curve, poor fit
Cc1cc(OCC(=O)Nc2ccc3c(c2)OCCO3)ccc1Cl	31.62	falling, single point
CCN(CC)CCN1C(=O)c2oc3ccccc3c(=O)c2C1c1ccccc1 (configuration not stated)	3.162	rising, single point
O=C(c1ccccc1)c1cccc(NC(=O)c2ccco2)c1	31.62	falling, single point

5 of the entries, repeated:

{"compound": "Nc1c(S(N)(=O)=O)cc(S(N)(=O)=O)cc1S(N)(=O)=O", "AC50 (µM)": "5.012", "curve as filed": "rising, single point"}
{"compound": "CCN(CC)CCN1C(=O)c2oc3ccccc3c(=O)c2C1c1ccccc1", "stereo": "configuration not stated", "AC50 (µM)": "3.162", "curve as filed": "rising, single point"}
{"compound": "CC/C(=C(\\c1ccccc1)c1ccc(OCCN(C)C)cc1)c1ccc(O)cc1", "AC50 (µM)": "25.12", "curve as filed": "falling, partial curve"}
{"compound": "Cc1ccccc1N1CCN(Cc2c(C#N)c3ccccc3n2C)CC1", "AC50 (µM)": "2.512", "curve as filed": "falling, full curve, poor fit"}
{"compound": "CCN1C(=O)/C(=C/N(C)C)c2ccccc21", "AC50 (µM)": "5.012", "curve as filed": "falling, single point"}